In paper PMC6325914:
The exact form of at least one protein or probe is not confirmed. No signal at the amounts used counts as a negative. Weaker means in comparison with the reference protein, sequence or condition of that experiment.

By UniProt entry, the sequences of proteins in these tests, tags left out. Where a name states a change or a piece, a line headed by the entry shows the natural chain unless it says otherwise.
UniProt P17106: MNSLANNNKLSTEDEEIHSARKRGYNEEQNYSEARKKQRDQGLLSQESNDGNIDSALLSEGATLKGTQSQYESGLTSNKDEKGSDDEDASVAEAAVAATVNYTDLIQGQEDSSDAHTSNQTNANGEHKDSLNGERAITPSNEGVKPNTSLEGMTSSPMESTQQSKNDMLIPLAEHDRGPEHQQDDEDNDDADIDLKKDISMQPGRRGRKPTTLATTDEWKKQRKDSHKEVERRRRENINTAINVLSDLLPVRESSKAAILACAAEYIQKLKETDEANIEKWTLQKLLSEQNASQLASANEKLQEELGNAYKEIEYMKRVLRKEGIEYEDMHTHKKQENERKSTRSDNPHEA

biological target: Cbf1 (Saccharomyces cerevisiae) (UniProt P17106); assay: EMSA; conditions: 0, 3, 6 ng Cbf1; 10 mM Tris pH 7.4, 1 mM EDTA, 50 mM KCl, room temperature 20 min, 20 ul, 2% agarose gel; recombinant protein; protein details: His; probe letters rebuilt from the primers and the genome

Sequence | binding result
GGCCTCGAGGGCAAGCTTGACCTTTACTTTCCTCTCTAAAAGCCGTGTCGCAGTAACTGGTGACGCTAAAGTTCTCCGGCGTTTTTTTATGTATGAGCTGGGCATCAAGAGCTTTTGAGATTTTCCAAGTAGTAACTCATCTTTCTGAGTGTGCTATCAAATACATACTAAGGAGAATAAACTCTTGTTATTACGTATTCTTCATCCTTATGGGTAGAGAGCGCACTGTTTTAGTACATTTTCTAGACGTCGAAACGTAGAGCAATTGTCGATAAAACAAAAAAAAAGTAAGAAGATATATGAATAGGAGCTGTCGCTAGAACTAGTAAGTATATGATGGAGATATAATAAGTGAATTATTCGATATTTAATGAACGTTCTCATTTATTTGGAAGAAATGTTTATCACGTGATGGAGAACCAATGAGCGGCGAGTAACTACGCGAGGAACCCGGACCGCAATAACGATTAAAGAAGGCCCGGAAGGGAGATGCTTAAATGATTATCACTCAGTTAAAAAAGACAAATAAGAAACTATTGAGACTGAACCGTTTTGGTTAATTTCAGGTGGAAACAATTGAAGACGAGCAGTAAACATTATTTTATTTAGTAGTCATGTTGTCAAGAATTGTATCAAAGCTTGCC (double strand) [ATP3 promoter] | binds
GGCCTCGAGCCTCTTGTCCATTATCTTCGGGATCTTCCTTCACCAAATCGCAAACATCTAAAATGTATTGCCAGTTATCACTTCTCAACTTGGGATCTGTTGCCTTCAACAGTGCATTCCTTATTTTAATCGCAGATGATGACATTTTTGTCAACGGTTTCCTTAGATAGATTTACGCATTGCCTCTGGCATGGCCCCTATATTTAACAGTTAGAATCCATTGCGTTTCATTTATGTAATTCGAATTTCTTAACTAATCACTAATAACGGTAAATGAGGTTAACCATTAGAATAATGTATATAATTACGTACAAAGGCTACCGAAGTTCTGCGGCAGTAATGTAGGGTTTAGCTTTTGAATCAATCTTAGAGCCTGCTATCTTCCTGCACTTGCTGATTCCATAAATATAAACACCTTTCGGCTAGACCGACAAAGGTCGTAGTCGTTTTTCCTTTAGGGTATTATGACCAGGGACACCCCAGTCCGTCAAGACTAATATCGATAGTATATTACAGGTAAATAGAGATCCCTTTTATAGAGAATTTAACGCTTTAAACTTACCTAATGCGTCATCTTCCATTTGAAATCCTTCTTGACCGAGGGCAGCCCAGGGGTAGTGAAAAACGATGAAAAAATTCCATTTTTTTAGCGGGAAAAGCAAATTGCAGCATCAACATTTTACGCGCTATCACTTGACAAACAAGGCAAGGAAAACTGCAGCCCTGTACTAAGAAGGTCAAGATATTTGCCAAACGATTTCGTAAGGTTGTCTCAATTGATCTGACTGCTTGTCTATCTAAAGTGGCAAGGTATATTAGACAGTGTTGAGAGTGAACTCCAAGATACAGAGAAACTGAAGAAATAACGACAACATGACATCAAAGCTTGCC (double strand) [LAG1 promoter] | no binding
GGCCTCGAGCATTTTCTGTCGCTCTTATGATCCGTTGGATTAACGGTCTGAATAGTACCTTACAGTTGCTAACACCTTCCTATACTCAAATCCAGTACTAGCCACTGTAAAATCAGTATTCCAATAGGAAGAAAAAGGGGATCATAACCCGGCTATCGTATCACATGATAGTCACGTGCAGTGATTATCACGTGATCCGAACTGTTGTGAAAAAACGCGACGCGAAAAAAAAAATGCTGGGCTTCAACAGGAAAAAGACCAGGAATGAAAAATAGTTGGAAAGGAAACAACTGTCTTTTCCGGTCATTCCAACAAAGTTGCTAGATCCGCGGAACCATTTTCGTCATTTTTTTTTTTTCACTCTTTTTTCTCATATCGGTGGGCATTGTACCTGATCATGCTAGACAAATAACGTGGGAGGAGGGAGAAAGTATTGGAATCTAGACAAAGATTTTTAAGTTATTTTTCTATTGTTTCCCTCCTTGGCTTGTTGCATCCCGTTTTGTTTTATTTACTTGCTTTTTTTTTTTCTTATTTATTTATTTATTTATTTATTGTTATTTGGCTATTGTATTCCGTGAACCCGTTTTTCTGCTACATCGGCTTTATAATCCGGACCTGATTTAAGTTAAAACTACAGTTTCTTGTTCGTTACCGTTTTTCTGTTCCATACAGATATTTTTGTCGGTTGATCGCTATTGTTTTTATTATTCATACCTCCGGTAAACATTTAGATAGACACAGTATCAATAAACAAGAGCTATGTGGACAAAGCTTGCC (double strand) [LAC1 promoter] | binds
GGCCTCGAGGGCAAGCTTGACCTTTACTTTCCTCTCTAAAAGCCGTGTCGCAGTAACTGGTGACGCTAAAGTTCTCCGGCGTTTTTTTATGTATGAGCTGGGCATCAAGAGCTTTTGAGATTTTCCAAGTAGTAACTCATCTTTCTGAGTGTGCTATCAAATACATACTAAGGAGAATAAACTCTTGTTATTACGTATTCTTCATCCTTATGGGTAGAGAGCGCACTGTTTTAGTACATTTTCTAGACGTCGAAACGTAGAGCAATTGTCGATAAAACAAAAAAAAAGTAAGAAGATATATGAATAGGAGCTGTCGCTAGAACTAGTAAGTATATGATGGAGATATAATAAGTGAATTATTCGATATTTAATGAACGTTCTCATTTATTTGGAAGAAATGTTTATCACCAGATGGAGAACCAATGAGCGGCGAGTAACTACGCGAGGAACCCGGACCGCAATAACGATTAAAGAAGGCCCGGAAGGGAGATGCTTAAATGATTATCACTCAGTTAAAAAAGACAAATAAGAAACTATTGAGACTGAACCGTTTTGGTTAATTTCAGGTGGAAACAATTGAAGACGAGCAGTAAACATTATTTTATTTAGTAGTCATGTTGTCAAGAATTGTATCAAAGCTTGCC (double strand) [ATP3* promoter] | binds more weakly
